Data source: PubChem BioAssay AID1159579 (Peter MacCallum Cancer Centre, 2015)

Purpose: 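Find genes whose silencing alters migration of lymphatic endothelial cells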 (follow-up of hits)
Cell system: human dermal lymphatic endothelial cells
Reagent: single siRNA against human genes, 25 nM
Measured: 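High content images of wound closure area and cell nuclei counts, each the average of two wells, expressed against mock transfection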
Reading the numbers: migration relative to mock: higher = more migration into the scratch; mean nuclei count: higher = more cells remaining
Hit rule: 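a ratio of at most 0.6 or at least 1.3 marks altered migration and an active call; a mean nuclei count under 3300 forces an inactive call regardless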
Calls: active = migration changed (impaired or accelerated); inactive = no migration change, or too few cells
The whole screen tested about 2,000 reagents; this is a random part of them. 549 of all reagents (27%) were called active. 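Some migration ratios are negative; siRNAs with too few cells are inactive whatever their migration ratio.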 The numbers tell different reagents against one gene apart. Reagent sequences are not shown. The record does not give: the time to read-out.

no.	Target gene	reagent no.	migration relative to mock	migration and cell number class	mean nuclei count	Outcome
1	VSTM1	1	0.64	no change in migration or cell number	4745	inactive
2	VSTM1	2	0.43	migration reduced	6424	active
3	VSTM1	3	0.94	no change in migration or cell number	5260	inactive
4	VSTM1	4	0.86	no change in migration or cell number	4471	inactive
5	CEPT1	1	0.97	no change in migration or cell number	4866	inactive
6	CEPT1	2	0.38	migration reduced	4777	active
7	CEPT1	3	0.98	no change in migration or cell number	5054	inactive
8	CEPT1	4	-0.4	migration reduced	3886	active
9	THSD4	1	0.82	no change in migration or cell number	5550	inactive
10	THSD4	2	-0.15	too few cells; migration not scored	2892	inactive
11	THSD4	3	0.97	no change in migration or cell number	5786	inactive
12	THSD4	4	1.02	no change in migration or cell number	6161	inactive
13	WDFY2	1	0.97	no change in migration or cell number	6488	inactive
14	WDFY2	2	0.42	migration reduced	5116	active
15	WDFY2	3	1.04	no change in migration or cell number	5607	inactive
16	WDFY2	4	0.68	no change in migration or cell number	4074	inactive
17	HOXC5	1	0.22	migration reduced	4792	active
18	HOXC5	2	0.06	migration reduced	4000	active
19	HOXC5	3	0.92	no change in migration or cell number	6020	inactive
20	HOXC5	4	0.52	migration reduced	6646	active
21	PI4K2A	1	1.01	no change in migration or cell number	4546	inactive
22	PI4K2A	2	0.65	no change in migration or cell number	5088	inactive
23	PI4K2A	3	0.84	no change in migration or cell number	6174	inactive
24	PI4K2A	4	1	no change in migration or cell number	6793	inactive
25	RHOG	1	0.82	no change in migration or cell number	6109	inactive
26	RHOG	2	0.71	no change in migration or cell number	5150	inactive
27	RHOG	3	0.8	no change in migration or cell number	5824	inactive
28	RHOG	4	0.38	migration reduced	5406	active
29	DNM1L	1	1	no change in migration or cell number	6490	inactive
30	DNM1L	2	0.64	no change in migration or cell number	6071	inactive
31	DNM1L	3	1.01	no change in migration or cell number	6406	inactive
32	DNM1L	4	0.38	migration reduced	4336	active
33	HSPA5	1	1.04	no change in migration or cell number	7137	inactive
34	HSPA5	2	1.08	no change in migration or cell number	5766	inactive
35	HSPA5	3	0.98	no change in migration or cell number	6862	inactive
36	HSPA5	4	0.74	no change in migration or cell number	5270	inactive
37	CCND2	1	0.94	no change in migration or cell number	5046	inactive
38	CCND2	2	1.19	no change in migration or cell number	5614	inactive
39	CCND2	3	0.8	no change in migration or cell number	6613	inactive
40	CCND2	4	0.64	no change in migration or cell number	5463	inactive
41	CHST8	1	0.76	no change in migration or cell number	6086	inactive
42	CHST8	2	0.21	migration reduced	4928	active
43	CHST8	3	0.48	migration reduced	4720	active
44	CHST8	4	0.69	no change in migration or cell number	6102	inactive
45	RTKN	1	0.48	migration reduced	6184	active
46	RTKN	2	0.6	migration reduced	5324	active
47	RTKN	3	0.74	no change in migration or cell number	6182	inactive
48	RTKN	4	0.89	no change in migration or cell number	5836	inactive
49	ABCA2	1	0.85	no change in migration or cell number	6836	inactive
50	ABCA2	2	0.37	migration reduced	5371	active
51	ABCA2	3	0.3	migration reduced	3983	active
52	ABCA2	4	0.69	no change in migration or cell number	4330	inactive
53	KRT6B	1	1.08	no change in migration or cell number	7194	inactive
54	KRT6B	2	0.74	no change in migration or cell number	6062	inactive
55	KRT6B	3	0.74	no change in migration or cell number	5444	inactive
56	KRT6B	4	0.86	no change in migration or cell number	5839	inactive
57	PLXDC2	1	1.1	no change in migration or cell number	6264	inactive
58	PLXDC2	2	0.77	no change in migration or cell number	4758	inactive
59	PLXDC2	3	0.7	no change in migration or cell number	4621	inactive
60	PLXDC2	4	0.86	no change in migration or cell number	4794	inactive
61	DPYSL2	1	-0.32	too few cells; migration not scored	2753	inactive
62	DPYSL2	2	0.71	no change in migration or cell number	5105	inactive
63	DPYSL2	3	0.62	no change in migration or cell number	4280	inactive
64	DPYSL2	4	0.94	no change in migration or cell number	3975	inactive
65	SETD9	1	0.91	no change in migration or cell number	4800	inactive
66	SETD9	2	1.02	no change in migration or cell number	5984	inactive
67	SETD9	3	0.98	no change in migration or cell number	5256	inactive
68	SETD9	4	0.64	no change in migration or cell number	4838	inactive

Limited to “mean nuclei count”, for 6 of the entries above:
WDFY2 #1 = 6488
WDFY2 #2 = 5116
WDFY2 #3 = 5607
WDFY2 #4 = 4074
HOXC5 #1 = 4792
HOXC5 #2 = 4000
